Measurements taken from patent publication US20170296680A1.

B1: Tau15 (VHH, not shown: large carriers)
VHH: QVKLEESGGGLVQPGGSLRLSCAASGFTFSNFAMTWVRQSPGKGLEWVSAIDNDGGRTSYSDSVKGRFTISRDNAKNTLYLQMNSLKPEDTAMYYCAAMNLATRKWELWGQGTQVTVSS
B2: Tau81 (VHH, not shown: large carriers)
VHH: QVQLVESGGGLVQPGGSLKLSCAASGFTGDHYAMSWVRQAPGKGLEWVSTIYSYSPNTYYVDSVKDRFTISLDNAKNTLYLQMNSLKPEDTAVYYCAADLEVAEYYAYWGQGTQVTVSS

Molecular target: hyperphosphorylated tau (tau-p; University of Victoria)
Test: SPR (Biacore T200), sdAb injected over immobilized hyperphosphorylated tau, 20-6000 nM per the legend

Binder | binding
B1 | binds
B2 | binds

No constants are given. Whether binding was seen depends on the method and setting. A result given as binding can be weak or reduced; the word gives no strength.
